Measured values taken from PubChem BioAssay AID2662 (National Center for Advancing Translational Sciences (NCATS), 2010).
“And” between values parts separate entries of the source, which are not always exact repeats. Identical values can stand only once. The whole screen tested about 290,000 compounds, of which about 110 (0.038%) were called active. Inconclusive results, whose numbers are uncertain, are shown with a selection of clear calls. The call rests on the fitted dose curve; in most records, active means well fitted inhibition curve with a large enough effect in the polarisation, with a control signal flat (not every such curve was filed as active); inconclusive means small, poorly fitted or top-dose-only effect, or effect the other way, or a change in a side signal; inactive means no such curve, though single readings can be large or run the other way; the % refers to the polarisation. Where the call is inconclusive, the potency comes from a doubtful curve fit. “Side channel” marks fits to a control or component signal instead of the main read-out.

By UniProt entry, the sequences of proteins in these tests, tags left out.
UniProt Q03164, whole entry, looked up: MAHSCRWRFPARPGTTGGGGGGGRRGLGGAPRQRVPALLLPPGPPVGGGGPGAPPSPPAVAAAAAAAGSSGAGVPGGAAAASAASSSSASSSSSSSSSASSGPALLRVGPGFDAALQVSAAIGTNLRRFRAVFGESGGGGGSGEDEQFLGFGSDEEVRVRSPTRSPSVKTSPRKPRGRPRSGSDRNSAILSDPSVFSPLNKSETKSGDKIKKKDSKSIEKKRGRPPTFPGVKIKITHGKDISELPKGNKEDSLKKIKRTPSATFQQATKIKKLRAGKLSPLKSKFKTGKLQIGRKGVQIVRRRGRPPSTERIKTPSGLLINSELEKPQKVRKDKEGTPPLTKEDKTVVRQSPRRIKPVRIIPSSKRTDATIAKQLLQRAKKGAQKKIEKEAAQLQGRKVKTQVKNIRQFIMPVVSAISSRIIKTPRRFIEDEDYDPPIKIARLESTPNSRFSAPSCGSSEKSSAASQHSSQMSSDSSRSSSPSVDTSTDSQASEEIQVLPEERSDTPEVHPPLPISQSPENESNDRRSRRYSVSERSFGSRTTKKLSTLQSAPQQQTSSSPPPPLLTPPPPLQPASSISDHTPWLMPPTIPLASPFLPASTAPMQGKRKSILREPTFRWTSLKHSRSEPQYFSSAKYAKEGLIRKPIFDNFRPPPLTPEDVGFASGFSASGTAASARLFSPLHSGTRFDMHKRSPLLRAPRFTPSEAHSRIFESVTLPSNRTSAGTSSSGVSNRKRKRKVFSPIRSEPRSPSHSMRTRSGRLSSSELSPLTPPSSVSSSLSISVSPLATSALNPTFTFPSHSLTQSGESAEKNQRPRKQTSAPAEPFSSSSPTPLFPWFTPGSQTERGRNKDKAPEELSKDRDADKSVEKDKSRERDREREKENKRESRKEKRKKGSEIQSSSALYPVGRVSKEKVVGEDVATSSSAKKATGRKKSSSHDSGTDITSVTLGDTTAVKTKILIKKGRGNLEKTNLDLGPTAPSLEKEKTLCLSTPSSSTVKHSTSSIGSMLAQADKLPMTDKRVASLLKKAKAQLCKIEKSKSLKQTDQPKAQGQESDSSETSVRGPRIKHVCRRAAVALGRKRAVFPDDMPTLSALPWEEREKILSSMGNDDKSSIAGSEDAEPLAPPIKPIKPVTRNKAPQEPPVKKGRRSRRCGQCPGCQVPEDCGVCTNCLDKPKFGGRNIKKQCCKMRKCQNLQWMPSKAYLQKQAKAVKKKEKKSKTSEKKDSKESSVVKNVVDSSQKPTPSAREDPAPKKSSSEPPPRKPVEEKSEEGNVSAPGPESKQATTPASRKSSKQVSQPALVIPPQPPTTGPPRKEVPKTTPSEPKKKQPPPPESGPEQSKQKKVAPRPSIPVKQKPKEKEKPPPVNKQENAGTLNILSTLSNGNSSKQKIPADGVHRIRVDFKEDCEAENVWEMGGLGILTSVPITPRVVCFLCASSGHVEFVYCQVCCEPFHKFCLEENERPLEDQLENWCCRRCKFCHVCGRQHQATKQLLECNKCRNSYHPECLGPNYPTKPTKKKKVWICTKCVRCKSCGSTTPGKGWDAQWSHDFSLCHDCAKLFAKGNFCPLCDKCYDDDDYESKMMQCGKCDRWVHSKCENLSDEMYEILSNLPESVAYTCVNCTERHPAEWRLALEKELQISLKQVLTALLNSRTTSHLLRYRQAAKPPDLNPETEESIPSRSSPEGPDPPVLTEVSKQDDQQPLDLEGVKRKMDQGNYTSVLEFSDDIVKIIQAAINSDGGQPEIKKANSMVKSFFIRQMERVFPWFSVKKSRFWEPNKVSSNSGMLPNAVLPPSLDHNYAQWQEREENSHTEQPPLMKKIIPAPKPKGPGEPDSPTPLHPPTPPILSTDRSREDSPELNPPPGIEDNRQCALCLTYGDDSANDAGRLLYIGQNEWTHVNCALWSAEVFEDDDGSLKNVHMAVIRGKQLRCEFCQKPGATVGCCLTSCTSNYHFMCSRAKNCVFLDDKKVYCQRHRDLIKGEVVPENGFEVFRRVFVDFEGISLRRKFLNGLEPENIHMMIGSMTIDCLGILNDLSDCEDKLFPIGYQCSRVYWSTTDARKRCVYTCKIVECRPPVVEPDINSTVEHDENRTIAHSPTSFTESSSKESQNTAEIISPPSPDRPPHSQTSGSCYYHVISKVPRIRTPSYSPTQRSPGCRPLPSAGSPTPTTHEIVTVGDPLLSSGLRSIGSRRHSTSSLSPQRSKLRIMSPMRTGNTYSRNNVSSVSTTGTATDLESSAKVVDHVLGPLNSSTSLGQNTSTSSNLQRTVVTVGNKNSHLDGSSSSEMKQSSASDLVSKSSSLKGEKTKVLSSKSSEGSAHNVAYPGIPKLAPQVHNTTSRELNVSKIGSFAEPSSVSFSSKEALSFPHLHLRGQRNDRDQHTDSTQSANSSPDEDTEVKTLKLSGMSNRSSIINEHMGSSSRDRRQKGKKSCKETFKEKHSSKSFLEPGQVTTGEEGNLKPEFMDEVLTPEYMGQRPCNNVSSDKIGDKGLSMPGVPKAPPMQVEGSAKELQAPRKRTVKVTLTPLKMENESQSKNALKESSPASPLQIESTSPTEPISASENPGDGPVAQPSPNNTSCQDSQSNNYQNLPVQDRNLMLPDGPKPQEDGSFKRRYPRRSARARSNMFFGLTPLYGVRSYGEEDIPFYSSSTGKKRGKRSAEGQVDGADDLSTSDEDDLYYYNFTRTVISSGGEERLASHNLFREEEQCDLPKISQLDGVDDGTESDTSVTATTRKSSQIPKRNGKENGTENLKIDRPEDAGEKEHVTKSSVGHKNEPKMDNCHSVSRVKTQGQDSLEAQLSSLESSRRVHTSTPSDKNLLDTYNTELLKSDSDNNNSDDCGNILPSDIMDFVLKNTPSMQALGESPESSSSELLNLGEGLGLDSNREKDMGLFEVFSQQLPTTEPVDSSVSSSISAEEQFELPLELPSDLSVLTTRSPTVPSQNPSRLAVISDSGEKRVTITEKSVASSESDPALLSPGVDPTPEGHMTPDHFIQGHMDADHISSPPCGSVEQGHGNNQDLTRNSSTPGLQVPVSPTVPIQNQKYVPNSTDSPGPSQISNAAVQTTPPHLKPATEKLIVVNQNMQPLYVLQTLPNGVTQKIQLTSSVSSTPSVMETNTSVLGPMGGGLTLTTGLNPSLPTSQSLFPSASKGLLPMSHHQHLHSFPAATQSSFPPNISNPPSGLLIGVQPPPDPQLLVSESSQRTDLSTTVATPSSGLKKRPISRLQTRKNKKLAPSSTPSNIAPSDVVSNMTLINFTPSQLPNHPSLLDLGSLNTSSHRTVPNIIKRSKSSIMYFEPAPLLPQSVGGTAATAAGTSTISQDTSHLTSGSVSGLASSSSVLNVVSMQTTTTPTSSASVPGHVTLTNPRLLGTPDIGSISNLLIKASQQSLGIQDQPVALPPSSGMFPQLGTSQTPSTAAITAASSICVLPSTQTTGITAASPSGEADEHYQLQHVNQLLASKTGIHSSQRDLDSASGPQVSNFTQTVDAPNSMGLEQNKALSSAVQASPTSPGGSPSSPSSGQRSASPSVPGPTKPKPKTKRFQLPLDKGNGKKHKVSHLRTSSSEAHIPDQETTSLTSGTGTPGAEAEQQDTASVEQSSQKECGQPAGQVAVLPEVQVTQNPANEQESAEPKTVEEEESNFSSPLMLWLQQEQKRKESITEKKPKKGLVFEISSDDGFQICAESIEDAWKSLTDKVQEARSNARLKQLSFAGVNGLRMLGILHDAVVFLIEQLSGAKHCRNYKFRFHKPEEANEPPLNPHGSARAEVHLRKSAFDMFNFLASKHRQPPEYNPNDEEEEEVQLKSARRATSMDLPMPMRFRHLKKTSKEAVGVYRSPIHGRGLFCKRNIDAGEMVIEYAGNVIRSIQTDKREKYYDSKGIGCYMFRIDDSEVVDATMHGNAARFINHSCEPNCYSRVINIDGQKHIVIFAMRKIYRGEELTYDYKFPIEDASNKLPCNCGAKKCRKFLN

What follows are compounds tested against Histone-lysine N-methyltransferase 2A (Homo sapiens) (UniProt Q03164) (assay: qHTS Fluorescence Polarization Assay for Inhibitors of MLL CXXC domain - DNA interaction). Details: MLL-CXXC / FITC-HOXA9 DNA fluorescence polarization; activity change, negative = inhibition: at 115 µM (top of the series).
In short: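 Steps: dispense CXXC domain solution (7 uM) → pin compounds or unlabeled HOX-A9 DNA control → 5 min ambient → add FLSN-HOX-A9 solution (50 nM) → spin → 30 min ambient → fluorescence polarization. Tris pH 7.5/NaCl/DTT/BSA buffer.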
Potency means the concentration at half of the fitted maximal effect.

Row | Structure (SMILES) | Potency | activity change, negative = inhibition
1 | COc1ccc(-c2cc(-c3ccc(Cl)cc3)c(C#N)c(SCC(=O)O)n2)cc1 | inconclusive: 79.4 µM [inhibitor, single point] | 
2 | CC(C)OCCCNC(=O)C1CC(=O)N(CCc2ccccc2)C1 (configuration not stated) | inconclusive: 10 µM [fluorescent, side channel, single point] | 
3 | CC(C)CN(CC(C)C)S(=O)(=O)N1CCC(C(=O)NC2CCCCCCC2)CC1 |  | inactive: -1.5%
4 | Cc1ccc2nc(N(CCCN(C)C)C(=O)c3cc(-c4cccs4)nc4ccccc34)sc2c1 | inconclusive: 6.31 µM [quencher, side channel, full curve] | 
5 | O=c1c2ccccc2[nH]c(=S)n1CCN1CCCCC1 | inconclusive: 5.62 µM [quencher, side channel, partial curve] | 
6 | C=CCOC(=O)C1=C[C@@H](C2CCCCC2)C[C@@H](OCc2ccc(CO)cc2)O1 | inconclusive: 11.2 µM [quencher, side channel, full curve, poor fit] | 
7 | O=c1c(-c2ccco2)[n+]([O-])c2ccccc2n1OCc1ccccc1[N+](=O)[O-] | inconclusive: 31.6 µM [fluorescent, side channel, partial curve] | 
8 | Cc1ccccc1OCC(=O)NN1Cc2ccccc2C1=N | inconclusive: 10 µM [fluorescent, side channel, single point] | 
9 | NC(=S)N=Nc1ccc(NN=C(N)N)cc1 | inconclusive: 31.6 µM [quencher, full curve] and inconclusive: 39.8 µM [quencher, side channel, partial curve] | 
10 | Cc1ccc(SCC(=O)Nc2ncc(C)s2)cc1 | inconclusive: 11.2 µM [inhibitor, partial curve] | 
11 | O=C(Cn1c(=O)oc2ccc(Cl)cc21)NC1CCCCC1 | inconclusive: 31.6 µM [quencher, side channel, single point] | 
12 | O=C(Nc1ccc2c(c1)nc1n2CCN(Cc2ccccc2)C1)c1cccs1 |  | inactive: 12.9%
13 | COCCN1C(=O)/C(=C/c2ccc(N3CCCC3)cc2C)SC1=S | inconclusive: 5.62 µM [fluorescent, side channel, full curve] | 
14 | O=C(COc1ccc(Cl)cc1)N/N=C/c1cccc2cccnc12 |  | inactive: -3.04%
15 | Cc1cc(-c2ccccc2)c(C#N)c(N)n1 |  | inactive: -0.0739%
16 | O=C1/C(=C/c2ccco2)CCc2ccccc21 |  | inactive: 3.72%
17 | CCOC(=O)c1c(CSc2nc(C)cc(C)c2C#N)n(C)c2cc(Br)c(OC(C)=O)cc12 |  | inactive: -7.96%
18 | O=C(N/N=C/c1ccc(O)c(O)c1)NC12CC3CC(CC(C3)C1)C2 | inconclusive: 70.8 µM [inhibitor, single point] | 
19 | COc1cc2c3nnc(-c4ccc(F)cc4)c-3cn(Cc3ccc(C)cc3)c2cc1OC | inconclusive: 31.6 µM [fluorescent, side channel, partial curve] | 
20 | CCCCNC(=S)N(Cc1c(C)noc1C)c1ccccc1 |  | inactive: 4.88%
21 | COC(=O)c1ccc(C(=O)NC2CCSc3ccccc32)cc1 (configuration not stated) | inconclusive: 31.6 µM [fluorescent, side channel, partial curve] | 

Row | Structure (SMILES) | Potency | activity change, negative = inhibition
22 | COCCCNC(=S)Nc1ccc(N2CCCCC2)cc1 |  | inactive: -15.8%
23 | C/C=C(\C)C(=O)Nc1cccc(C2=NOC3(C2)C[C@@H](C(N)=O)N(C(=O)c2ccccc2C(=O)c2ccccc2)C3)c1 (some centres not stated) |  | inactive: 9.18%
24 | Cc1ccc(C(=O)N2CCN3C(=O)c4ccccc4C23c2ccc(Cl)cc2)cc1 (configuration not stated) | inconclusive: 3.16 µM [quencher, side channel, full curve, poor fit] | 
25 | O=C(COc1ccccc1/C=C\c1nc(O)c([N+](=O)[O-])c(=O)[nH]1)Nc1ccccc1 | inconclusive: 12.6 µM [inhibitor, full curve, poor fit] | 
26 | CC(C)(C)c1ccc(NC(=O)c2ccsc2)cc1 |  | inactive: -2.87%
27 | Cc1ccc2[nH]c(=O)c(CN(C(=O)c3cccc([N+](=O)[O-])c3)C(C)(C)C)cc2c1 | inconclusive: 31.6 µM [fluorescent, side channel, partial curve] | 
28 | COc1ccc(-c2c(C#N)c(N)nc3sc(C(=O)c4ccccc4)c(N)c23)cc1 | inconclusive: 63.1 µM [fluorescent, side channel, single point] | 
29 | COc1ccc(-c2nc(=S)n3ccsc3n2)cc1OC | inconclusive: 70.8 µM [inhibitor, single point] | 
30 | COc1ccc(OC)c(NC(=O)Cn2cnc3c(cnn3-c3ccccc3)c2=O)c1 | inconclusive: 3.16 µM [quencher, side channel, full curve] | 
31 | CCC(CC)NC(=O)COC(=O)c1cccc(C)c1O | inconclusive: 14.1 µM [fluorescent, side channel, single point] | 
32 | CCN1CCCC1CNC(=O)c1ccc2c(c1)NC(=O)/C(=C\c1ccc(OC)c(OC)c1)S2 (configuration not stated) | inconclusive: 20 µM [quencher, side channel, partial curve] | 
33 | COC(=O)c1cccc(C(=O)N2CCCC(CNC(=O)c3ccccc3Cl)C2)c1 (configuration not stated) | inconclusive: 3.16 µM [quencher, side channel, full curve] | 
34 | CC(C)Oc1ccc(-c2nn(-c3ccccc3)cc2/C=c2\sc3ncnn3c2=O)cc1 | inconclusive: 31.6 µM [fluorescent, side channel, partial curve] | 
35 | CC(O)[C@H]1CNC(=O)C(=O)N1CC1(c2ccccc2)CC1 (some centres not stated) | inconclusive: 100 µM [inhibitor, partial curve, poor fit] | 
36 | COc1ccc2ccccc2c1CNCc1ccc(C)cc1 | inconclusive: 10 µM [quencher, side channel, full curve, poor fit] | 
37 | COc1ccc(NS(=O)(=O)c2ccc(C)c(NC(=O)c3ccc(C)c(S(=O)(=O)N4CCOCC4)c3)c2)cc1 | inconclusive: 15.8 µM [fluorescent, side channel, single point] | 
38 | COc1ccccc1N1CCN(C2CCN(C(=O)c3ccc(F)cc3)CC2)CC1 |  | inactive: 8.93%
39 | Cn1c(N2CCOCC2)c(C=O)c2ccccc21 |  | inactive: -5.67%
40 | c1ccc(-c2nnc(-c3ccccn3)nc2NC2CCCCC2)cc1 | inconclusive: 31.6 µM [quencher, side channel, partial curve, poor fit] | 
41 | Cc1cc(/C=C(/C#N)c2nc3ccccc3[nH]2)c(C)n1-c1cc(C(=O)O)cc(C(=O)O)c1 |  | inactive: -6.36%
42 | COc1cc(/C=C2\CC(C(C)(C)C)C/C(=C\c3cc(OC)c(OC)c(OC)c3)C2=O)cc(OC)c1OC (configuration not stated) | inconclusive: 35.5 µM [quencher, side channel, single point] | 

Row | Structure (SMILES) | Potency | activity change, negative = inhibition
43 | Cc1cccc(Nc2nc(-c3ccc4c(c3)OCCO4)cs2)c1 | inconclusive: 3.55 µM [quencher, side channel, partial curve] | 
44 | O=C(OCC(=O)c1ccc(Cl)s1)c1cnccn1 | inconclusive: 31.6 µM [fluorescent, side channel, partial curve] | 
45 | CCCOc1cccc(C(=O)NCCCNC(=O)c2cccnc2)c1 | inconclusive: 14.1 µM [quencher, side channel, single point] | 
46 | CC(=O)c1sc2nc(-c3cccs3)cc(C(F)(F)F)c2c1N | inconclusive: 31.6 µM [fluorescent, side channel, partial curve] | 
47 | Clc1nc(Nc2ccccc2)nc(Nc2ccccc2)n1 |  | inactive: 51.5%
48 | CCc1cc2c(Nc3ccc(O)cc3)nc(C)nc2s1 |  | inactive: -11.6%
49 | COc1ccc(NC(=O)C2Cc3ccccc3CN2C(=O)c2ccccc2)cn1 (configuration not stated) | inconclusive: 63.1 µM [inhibitor, single point] | 
50 | CCOc1ccc2nc(SC3CC(=O)N(c4cccc(OC)c4)C3=O)sc2c1 (configuration not stated) | inconclusive: 6.31 µM [fluorescent, side channel, single point] | 
51 | COC(=O)Cn1cc(/C=C/c2cc[n+](C)cc2)c2ccccc21 | inconclusive: 35.5 µM [fluorescent, side channel, partial curve] | 
52 | COCCCNc1nc2ccccc2nc1NS(=O)(=O)c1ccccc1 | inconclusive: 31.6 µM [fluorescent, side channel, partial curve] | 
53 | COc1ccc(NC(=O)C(=O)NCCN2CCN(C(=O)c3cccc(Br)c3)CC2)cc1 | inconclusive: 8.91 µM [fluorescent, side channel, single point] | 
54 | CC1CCC(N2CCN(c3ccc([N+](=O)[O-])cc3)CC2)CC1 (configuration not stated) |  | inactive: 4.88%
55 | C#CCN1C(=O)S/C(=C\c2cc3c(cc2OC)OCO3)C1=O | inconclusive: 63.1 µM [fluorescent, side channel, single point] | 
56 | Cc1cc(CC(C)C)n(-c2nc3ccccc3c(=O)n2OCC(=O)N(C)C)n1 |  | inactive: -0.675%
57 | CSc1ccc(-c2sc(Nc3ccccc3)n[n+]2-c2ccccc2)cc1 | inconclusive: 31.6 µM [quencher, side channel, partial curve] | 
58 | NCC(=O)Nc1ccc(Cl)cc1C(=O)c1ccc[nH]1 |  | inactive: 1.83%
59 | COC(=O)c1cc(S(=O)(=O)N(C)C2CCCCC2)c[nH]1 |  | inactive: 0.548%
60 | Cc1cc(/C=C2\SC(=S)N(C)C2=O)c(C)n1-c1cccc(O)c1 | inconclusive: 63.1 µM [fluorescent, side channel, single point] | 
61 | CN(CCO)S(=O)(=O)c1ccc2c(c1)C(=NNC(N)=O)c1cc(S(=O)(=O)N(C)CCO)ccc1-2 |  | inactive: -7.42%
62 | O=C(Nc1sc2c(c1C(=O)O)CCC2)c1ccccc1F | inconclusive: 35.5 µM [inhibitor, partial curve] | 
